From PubChem BioAssay (NCATS)
This list was built around the results that the source calls inconclusive (neither active nor inactive); the mix of calls is not that of the screen. Calls of active or inactive are those of the source. The call rests on the fitted dose curve; in most records, active means well fitted activation curve with a large enough effect; inconclusive means small, poorly fitted or top-dose-only effect, or effect the other way; inactive means flat fitted curve, though single readings scatter.

Test: Cellular Toxicity (caspase-3) Renal Proximal Tubule (AID 667);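 further: cells exposed to compound for 16 hours at 37 °C before detection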
Details: renal proximal tubule cells, primary cells freshly taken from rat; Potency: caspase-3 activation; caspase-3 activation: at 91.7 µM (top of the series), solvent-only wells 0%, staurosporine 100%
Source text: NIH Chemical Genomics Center [NCGC]
NIH Molecular Libraries Screening Centers Network [MLSCN]
National Institutes of Environmental Health Sciences [NIEHS]
National Toxicology Program [NTP]
We have developed a 1536-well cell-based assay for quantitative high throughput screening (qHTS) against a number of cell lines to determine in vitro caspase 3/7 activity of small molecules. This particular assay uses the primary kidney proximal tubule cells freshly isolated from rat.
NCGC Assay Protocol Summary:
The Caspase-Glo 3/7 assay (Promega) is a homogeneous method to measure caspase-3 and caspase-7 activities in cultured cells. The quantitation of caspase 3/7 activity is based on the cleavage of a peptide-aminoluciferin substrate. After caspase cleaves the substrate the free aminoluciferin is liberated and serves as the substrate of luciferase, which generates the light. The luminescent signal is proportional to the amount of caspase 3/7 activity present.
Using the Caspase-Glo 3/7 assay, the amount of caspase 3/7 activity was measured in the rat kidney proximal tubule cells with complete culture medium following compound treatment for 16 hours. The assay was performed in opaque white 1536-well plates. In the screen, staurosporine and doxorubicin were used as positive controls. Library compounds were measured for their ability to cause the activation of caspase 3/7 in the cell line, as reflected by an increase in luminescence signal, in a concentration-dependent manner. Data were normalized to the controls for basal activity (DMSO only) and 100% stimulation (10 uM staurosporine). AC50 values were determined from concentration-response data modeled with the standard Hill equation.
qHTS protocol for caspase 3/7 assay in rat kidney proximal tubule cells
[Step] [Parameter] [Value] [Description]
1. Reagent; 5 uL; 1000 rat kidney proximal tubule cells/well
2. Time; 5 hr; 37 °C incubation
4. Controls; 23 nL; doxorubicin 7 pM to 100 uM & staurosporine 1.4 pM to 20 uM
5. Time; 16 hr; 37 °C incubation
6. Reagent; 5 uL; Caspase-Glo 3/7 reagent
7. Time; 1 hr; Room Temperature
8. Detection; Luminescence; Viewlux plate reader
Keywords: caspase 3/7, apoptosis, rat kidney proximal tubule cells, luminescence, NTPHTS, NTPHTS_NCGC, NIEHS, EPA, DSSTox, MLSMR, MLSCN, NIH Roadmap, qHTS, NCGC
Potency means the concentration at half of the fitted maximal effect.

Row | SMILES | caspase-3 activation | Potency
1 | Cc1cc(Nc2ccc(O)cc2)ccc1N | inactive: -3.22% | 
2 | C=C1CC[C@H](O)C/C1=C/C=C1\CCC[C@]2(C)[C@@H]([C@H](C)CCCC(C)C)CC[C@@H]12 | inconclusive: 77.6% | 
3 | CC1=C(/C=C/C(C)=C/C=C/C(C)=C/C=O)C(C)(C)CCC1 |  | active: 31.6 µM
4 | Cc1cc(C(=O)O)ccc1[N+](=O)[O-] | inactive: -4.18% | 
5 | CCOC(=O)C(C)C(C)=O (stereo not given) | inactive: -9.14% | 
6 | CC1=C(/C=C/C(C)=C/C=C/C(C)=C\C=O)C(C)(C)CCC1 |  | active: 31.6 µM
7 | Cc1cc(O)c(C(C)(C)C)cc1Sc1cc(C(C)(C)C)c(O)cc1C | inconclusive: 60.8% | 
8 | CCCCCCCC[N+](CCCCCCCC)(CCCCCCCC)CCCCCCCC | inconclusive: 3.35% | 
9 | C[C@@H]1CC2(OC(O)[C@]3(C)O[C@H]23)O[C@H]2C[C@@]3(C)[C@@H]4CC[C@H]5C(C)(C)C(O[C@@H]6OC[C@@H](O)[C@H](O)[C@H]6O)CC[C@@]56C[C@@]46CC[C@]3(C)[C@@H]12 (stereo not given in full) | inconclusive: 36.5% | 
10 | O=C(O)c1ccc(CO)o1 | inactive: -6.02% | 

2 entries picked at random from those above, as already listed:
Row | SMILES | caspase-3 activation | Potency
2 | C=C1CC[C@H](O)C/C1=C/C=C1\CCC[C@]2(C)[C@@H]([C@H](C)CCCC(C)C)CC[C@@H]12 | inconclusive: 77.6% | 
10 | O=C(O)c1ccc(CO)o1 | inactive: -6.02% | 
